# Results as given in PubChem BioAssay.
# The chains behind the UniProt entries cited, without tags or fusion partners. Where a name states a change or a piece, a line headed by the entry shows the natural chain unless it says otherwise.
# UniProt Q9H2X9: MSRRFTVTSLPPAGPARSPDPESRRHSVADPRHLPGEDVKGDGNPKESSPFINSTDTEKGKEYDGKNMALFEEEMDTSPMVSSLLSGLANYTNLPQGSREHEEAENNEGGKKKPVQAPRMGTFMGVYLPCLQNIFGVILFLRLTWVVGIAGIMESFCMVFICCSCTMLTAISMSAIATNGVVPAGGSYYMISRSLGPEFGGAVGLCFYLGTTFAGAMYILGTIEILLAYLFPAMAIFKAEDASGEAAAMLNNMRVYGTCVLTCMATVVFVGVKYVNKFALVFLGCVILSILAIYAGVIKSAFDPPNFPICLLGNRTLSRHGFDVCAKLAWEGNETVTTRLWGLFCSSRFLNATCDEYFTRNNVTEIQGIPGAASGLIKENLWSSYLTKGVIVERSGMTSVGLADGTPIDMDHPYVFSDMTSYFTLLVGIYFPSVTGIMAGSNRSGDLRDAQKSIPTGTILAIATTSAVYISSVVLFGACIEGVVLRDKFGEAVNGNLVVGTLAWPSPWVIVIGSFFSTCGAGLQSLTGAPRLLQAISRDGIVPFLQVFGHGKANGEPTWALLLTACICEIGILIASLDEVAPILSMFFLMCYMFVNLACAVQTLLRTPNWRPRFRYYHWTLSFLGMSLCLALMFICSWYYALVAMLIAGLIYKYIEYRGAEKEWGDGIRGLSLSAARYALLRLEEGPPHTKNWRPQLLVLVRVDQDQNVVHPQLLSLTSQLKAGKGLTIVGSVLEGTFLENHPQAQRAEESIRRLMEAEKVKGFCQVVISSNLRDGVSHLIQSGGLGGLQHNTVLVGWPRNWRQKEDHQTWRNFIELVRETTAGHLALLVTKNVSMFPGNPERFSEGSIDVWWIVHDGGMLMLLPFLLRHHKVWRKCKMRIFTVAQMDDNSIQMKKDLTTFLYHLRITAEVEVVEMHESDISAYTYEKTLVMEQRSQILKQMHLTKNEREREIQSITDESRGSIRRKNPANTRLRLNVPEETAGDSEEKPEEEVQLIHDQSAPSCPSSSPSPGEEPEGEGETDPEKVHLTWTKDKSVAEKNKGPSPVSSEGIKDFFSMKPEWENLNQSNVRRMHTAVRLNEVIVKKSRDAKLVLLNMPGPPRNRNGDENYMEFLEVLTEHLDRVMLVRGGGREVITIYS
# Inconclusive means that the source gave no clear call. Such entries were picked first, then a sample of the others. The source made the active and inactive calls.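 Rule for the calls, unless noted: active = thallium flux slope above the same plate's solvent-only control mean plus 3 SD; inconclusive = the two replicate wells disagree; inactive = no significant difference from solvent-only control wells.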
# Tests used:
# [1] = molecular target: Solute carrier family 12 member 5 (Homo sapiens) (UniProt Q9H2X9); test: retest of KCC2 transport modulators without sodium – cell-based, HEK293 KCC2, thallium flux, secondary assay, confirmation (AID 1713); settings: FluoZin2 fluorescence, at 10 µM, hits give high values
# Summary of the method: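 Read-out basis: F/F0 slope over 10–20 s post-thallium, baseline-normalized; test system: KCC2-expressing HEK cells; detection: FluoZin2 fluorescence, 480/540 nm, 1 Hz; reagent: thallium stimulus; compound dosing: 10 µM single concentration; control set: 2 mM bumetanide as positive, DMSO as negative control; times: 48 min dye loading; buffer or medium: Sodium-free N-methylglucamine chloride buffer; replicates: duplicates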
# [2] = molecular target: Solute carrier family 12 member 5 (Homo sapiens) (UniProt Q9H2X9); test: retest of KCC2 transport modulation, ouabain-free – cell-based, HEK293 KCC2, thallium flux, FluoZin2, secondary assay 2, confirmation (AID 1715;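 active = thallium flux slope more than 3 SD above or below the plate's solvent-only control mean, mostly below; inconclusive = the two repeat wells disagreed; inactive = no significant shift from solvent-only controls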;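 note: raw slope with 0.1% DMSO as baseline and bumetanide as block control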); settings: HEK293-KCC2, thallium flux FluoZin2 fluorescence; at 10 µM; actives lie on both sides; F/F0 rise rate, 10–20 s post-thallium
# [3] = compound effects on native HEK Tl+ uptake – HEK cells, counterscreen 1, counter-screen for KCC2 modulator project, confirmation (AID 1716;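 active = thallium flux rate significantly above the same plate's solvent-only control wells, beyond their mean plus 3 SD; inconclusive = the two replicate wells gave conflicting results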); settings: HEK293 parental cells, thallium flux FluoZin2, ouabain; at 10 µM; baseline-ratio fluorescence slope, 10–20 s after thallium
# [4] = native HEK Tl+ uptake effects, second counter-screen – HEK cells, counterscreen 2, counter-screen for KCC2 modulator project, confirmation (AID 1718;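 active = thallium flux slope above the same plate's solvent-control mean plus 3 SD in both duplicate wells; inconclusive = duplicate wells that disagreed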;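 note: run without ouabain in cells lacking the KCC2 cotransporter; slope of fluorescence scaled to its starting value between 10 and 20 s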); settings: HEK293 parental, thallium flux FluoZin-2 fluorescence slope; at 10 µM
# Summary of the method: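 System: Parental HEK cells | Also added: Thallium sulfate stimulus buffer | Compound dosing: Single 10 µM final compound dose, 0.1% DMSO | Schedule: Overnight cell culture at 37 °C, 48 min dye loading, compound before thallium | Signal: FluoZin-2 fluorescence kinetics | Repeats: Replicate wells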
# [5] = molecular target: Solute carrier family 12 member 5 (Homo sapiens) (UniProt Q9H2X9); test: modulation of KCC2 thallium flux in HEK cells – cell-based, ouabain, retest, confirmation (AID 1717;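 active = thallium flux slope beyond 3 SD from same-plate DMSO control mean in most replicates, usually higher, sometimes lower; inconclusive = repeat tests gave conflicting results; inactive = no significant difference from controls in most replicates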;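 note: slope of initial-normalized fluorescence between seconds 10 and 20 after thallium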); settings: HEK293-KCC2, thallium flux FluoZin2 fluorescence, at 10 µM, bidirectional: low = inhibitor, high = activator
Structure (SMILES),normalised thallium flux (F/F0 slope) [1],normalized thallium flux [2],thallium flux rate (normalised fluorescence) [3],thallium flux slope [4],"raw Tl+ flux slope (below DMSO = inhibition, above = activation) [5]"
Cc1ccc(-c2csc3ncnc(SCC(N)=O)c23)cc1,active: 0.0178,inactive: 0.0383,inconclusive: 0.0279,inconclusive: 0.0181,
O=C(Nc1ccc2oc(-c3ccccc3)nc2c1)c1ccc2c(c1)OCCO2,inactive: 0.0079,inactive: 0.0295,inactive: 0.00705,inconclusive: 0.0108,
CCOc1cc(/C=C2\N=C(SC)SC2=O)cc([N+](=O)[O-])c1OC(C)=O,inconclusive: 0.00796,inconclusive: 0.0265,,,inactive: 0.0178
CCN(CC)c1ccc(NC(=S)NC(=O)c2ccco2)cc1,active: 0.0431,inconclusive: 0.0466,inconclusive: 0.0744,inconclusive: 0.0435,
CC(C)C(CCNC(=O)CC(Cc1ccccc1)c1ccco1)c1ccco1 (stereo not drawn),inconclusive: 0.00643,inconclusive: 0.0267,inconclusive: 0.00598,inactive: 0.00954,
Cc1ccc(/C=N\Nc2nc3ccc(Cl)cc3[nH]2)o1,inactive: 0.00712,,inconclusive: 0.00893,,
O=C(Cc1csc(Nc2nc(=S)[nH]c3ccccc23)n1)N1CCN(c2cccc(Cl)c2)CC1,inconclusive: 0.0114,,active: 0.0303,,
Cc1ccc(OCCSc2ncnc3sc(C)c(C)c23)cc1C,active: 0.0136,,inconclusive: 0.00865,,inconclusive: 0.028
CC(/C=C\C=C\c1ccccc1)=N\NC(=O)c1cncc(Br)c1,inconclusive: 0.0121,,active: 0.0377,,

# An excerpt of these results, with tabs:
Structure (SMILES)	normalised thallium flux (F/F0 slope) [1]	normalized thallium flux [2]	thallium flux rate (normalised fluorescence) [3]	thallium flux slope [4]	raw Tl+ flux slope (below DMSO = inhibition, above = activation) [5]
Cc1ccc(OCCSc2ncnc3sc(C)c(C)c23)cc1C	active: 0.0136		inconclusive: 0.00865		inconclusive: 0.028
CC(/C=C\C=C\c1ccccc1)=N\NC(=O)c1cncc(Br)c1	inconclusive: 0.0121		active: 0.0377		
